The target in the experiment is Bcl-xL (human) (UniProt Q07817). Nature of the experiment: co-IP; HEK cells co-transfected with a GFP-tagged Bax construct and Bcl-xL, harvested after 15 hours; lysed in 1% CHAPS, 50 mM Tris-Cl, 150 mM NaCl, 1 mM EDTA, pH 7.4; Bcl-xL immunoprecipitated with 10 μg antibody to Bcl-xL and Protein-G agarose at 4°C; immunoprecipitates blotted with an antibody to GFP and for actin.

Amino acid sequences for entries named in this document (tags omitted). A change or cut given only in a name is not applied to a line headed by its entry.
UniProt Q07817: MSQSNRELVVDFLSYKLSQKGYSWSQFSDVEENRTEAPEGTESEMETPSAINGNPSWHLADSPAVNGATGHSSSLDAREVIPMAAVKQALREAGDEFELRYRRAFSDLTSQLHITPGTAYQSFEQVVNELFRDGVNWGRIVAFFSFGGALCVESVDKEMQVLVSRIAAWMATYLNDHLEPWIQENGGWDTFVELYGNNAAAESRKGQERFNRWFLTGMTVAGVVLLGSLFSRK
UniProt Q07813: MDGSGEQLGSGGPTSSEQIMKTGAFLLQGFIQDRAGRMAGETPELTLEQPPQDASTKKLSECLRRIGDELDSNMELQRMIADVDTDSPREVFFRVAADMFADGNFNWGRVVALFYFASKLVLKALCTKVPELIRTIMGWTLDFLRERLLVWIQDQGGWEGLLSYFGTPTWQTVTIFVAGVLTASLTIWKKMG

These are yes or no findings as the source states them, for the method shown. Binding seen in cells or lysates may run through a third protein. Some entries that bind do so weakly or less than the wild type.

For the substance “Bax 1–146-GFP (from UniProt Q07813 1-146) (domain or fragment)”, the binding result is reported as “binds”.

For the substance “Bax 30–105-GFP (from UniProt Q07813 30-105) (domain or fragment)”, the binding entry is “binds”.

As to “Bax 30–146-GFP (from UniProt Q07813 30-146) (domain or fragment)”, the binding entry is given as “binds”.

The values above are taken from publication PMC1890283.
